# Source: PubChem BioAssay AID2073 (Sanford-Burnham Center for Chemical Genomics, 2009)
# The chains behind the UniProt entries cited, without tags or fusion partners.
# UniProt Q00975, whole entry, looked up: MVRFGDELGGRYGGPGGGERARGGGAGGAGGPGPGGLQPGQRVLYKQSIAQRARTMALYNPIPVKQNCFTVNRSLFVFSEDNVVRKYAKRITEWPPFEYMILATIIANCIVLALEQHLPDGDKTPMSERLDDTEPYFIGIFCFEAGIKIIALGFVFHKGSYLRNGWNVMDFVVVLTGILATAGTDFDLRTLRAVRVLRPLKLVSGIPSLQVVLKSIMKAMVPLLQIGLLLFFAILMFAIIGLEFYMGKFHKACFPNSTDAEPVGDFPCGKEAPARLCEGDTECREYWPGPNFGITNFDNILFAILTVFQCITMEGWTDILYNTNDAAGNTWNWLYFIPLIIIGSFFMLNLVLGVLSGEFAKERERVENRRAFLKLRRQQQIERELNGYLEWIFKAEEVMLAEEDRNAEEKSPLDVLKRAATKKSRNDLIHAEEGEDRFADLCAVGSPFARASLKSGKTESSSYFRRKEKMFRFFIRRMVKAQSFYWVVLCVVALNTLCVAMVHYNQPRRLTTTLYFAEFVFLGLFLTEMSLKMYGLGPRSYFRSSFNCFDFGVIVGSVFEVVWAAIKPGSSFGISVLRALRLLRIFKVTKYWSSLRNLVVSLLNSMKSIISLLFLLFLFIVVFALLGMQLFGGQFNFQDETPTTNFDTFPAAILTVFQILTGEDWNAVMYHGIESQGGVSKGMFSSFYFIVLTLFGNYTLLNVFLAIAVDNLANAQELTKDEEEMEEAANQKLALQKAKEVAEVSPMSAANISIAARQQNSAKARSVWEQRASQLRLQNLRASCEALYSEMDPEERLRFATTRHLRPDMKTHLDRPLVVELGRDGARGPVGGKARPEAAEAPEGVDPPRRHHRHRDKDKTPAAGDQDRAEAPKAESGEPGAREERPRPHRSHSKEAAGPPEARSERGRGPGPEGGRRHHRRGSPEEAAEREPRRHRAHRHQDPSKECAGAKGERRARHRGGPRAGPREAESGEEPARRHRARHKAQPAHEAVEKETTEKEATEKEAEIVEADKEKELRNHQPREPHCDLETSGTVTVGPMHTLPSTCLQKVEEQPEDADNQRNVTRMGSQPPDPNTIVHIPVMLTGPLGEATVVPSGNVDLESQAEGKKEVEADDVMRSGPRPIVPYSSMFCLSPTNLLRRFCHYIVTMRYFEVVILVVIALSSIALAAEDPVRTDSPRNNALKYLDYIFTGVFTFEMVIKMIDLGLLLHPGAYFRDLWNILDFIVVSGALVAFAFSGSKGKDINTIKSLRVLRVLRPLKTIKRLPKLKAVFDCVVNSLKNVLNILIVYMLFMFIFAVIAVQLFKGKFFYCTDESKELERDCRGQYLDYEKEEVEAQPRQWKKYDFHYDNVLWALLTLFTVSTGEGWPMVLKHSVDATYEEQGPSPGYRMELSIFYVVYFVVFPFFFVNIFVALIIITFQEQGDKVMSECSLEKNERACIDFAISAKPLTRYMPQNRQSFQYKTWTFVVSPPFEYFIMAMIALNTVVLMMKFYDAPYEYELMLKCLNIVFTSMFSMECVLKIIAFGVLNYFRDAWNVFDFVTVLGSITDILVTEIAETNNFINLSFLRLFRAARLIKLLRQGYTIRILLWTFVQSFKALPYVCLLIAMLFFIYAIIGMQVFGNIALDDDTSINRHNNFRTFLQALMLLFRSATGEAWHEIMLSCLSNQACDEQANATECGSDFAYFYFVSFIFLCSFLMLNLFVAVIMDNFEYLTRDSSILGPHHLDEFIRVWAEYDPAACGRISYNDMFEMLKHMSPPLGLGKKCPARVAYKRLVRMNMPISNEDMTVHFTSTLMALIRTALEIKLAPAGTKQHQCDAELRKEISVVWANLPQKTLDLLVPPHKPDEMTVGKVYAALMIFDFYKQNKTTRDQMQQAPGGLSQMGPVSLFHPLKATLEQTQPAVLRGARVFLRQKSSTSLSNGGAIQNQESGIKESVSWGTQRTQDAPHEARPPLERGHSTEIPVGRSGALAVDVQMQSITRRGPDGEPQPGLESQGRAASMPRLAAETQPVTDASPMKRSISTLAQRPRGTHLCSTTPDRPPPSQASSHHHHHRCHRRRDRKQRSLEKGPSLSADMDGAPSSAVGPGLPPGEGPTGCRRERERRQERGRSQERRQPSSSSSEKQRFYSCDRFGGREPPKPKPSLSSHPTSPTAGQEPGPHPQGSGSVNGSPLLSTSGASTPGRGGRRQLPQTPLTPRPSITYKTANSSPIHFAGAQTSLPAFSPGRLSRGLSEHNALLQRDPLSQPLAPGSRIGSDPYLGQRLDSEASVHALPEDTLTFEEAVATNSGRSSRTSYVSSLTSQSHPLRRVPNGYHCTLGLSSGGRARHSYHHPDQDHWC
# Hit rate of the full screen: of about 290,000 compounds, about 570 (0.2%) were called active. Inconclusive means that the source gave no clear call. Such entries were picked first, then a sample of the others. Rule as the data show it: active = inhibition mostly above about 51% (no sharp cut-off); inconclusive = no clear call, values can overlap the other calls; inactive = mostly below about 53%.
# Biological target: Voltage-dependent N-type calcium channel subunit alpha-1B (Homo sapiens) (UniProt Q00975)
# Test: disruptors of CaV2.2 binding to Mint1 – biochemical, HTRF (AID 2073)
# Settings: HTRF protein-protein interaction, Mint1-CaV2.2; at 20 µM; hits give high values
row,SMILES,inhibition
1,O=C(NCc1cccnc1)NC(=O)c1ccc(Cl)cc1,inactive: -3%
2,Nc1nc(-c2ccc([N+](=O)[O-])cc2)cs1,inactive: 35.7%
3,COCCCn1c(SCC(=O)Nc2cccc(C(=O)OC)c2)nnc1-c1ccncc1,inconclusive: 84.6%
4,CN(Cc1cn(C)nc1-c1ccccc1F)C1CCOC1 (stereo not given),inconclusive: 77.1%
5,Cc1oc2c(c(C)cc3oc(=O)c(CC(=O)NCCC(=O)O)c(C)c32)c1C,inconclusive: 93.9%
6,O=C(Nc1ccc(O)c(-c2nc3ccccc3o2)c1)C1(c2ccc(Cl)cc2)CCCC1,inconclusive: 70.5%
7,O=C(Nc1ccc(NC(=O)c2sc3ccccc3c2Cl)cc1)c1ccco1,active: 60.5%
8,COc1ccc(-n2nc(C(=O)NCC(=O)NCc3ccc(F)cc3)c3ccccc3c2=O)cc1,inactive: 8.9%
9,Cc1cc(C)n(CCNC(=O)CC2C(=O)NCCN2Cc2ccc(C)o2)n1 (stereo not given),inconclusive: 52.1%
10,CCn1c(SCc2ccc(C)cc2)nnc1-c1cnccn1,inactive: 1.9%
11,O=C(N/N=C/c1ccc(O)c(Br)c1)c1cc2c(ccc3ccccc32)o1,inconclusive: 63.6%
12,COc1ccc(NC(=O)CSc2ccc3nnc(-c4ccccn4)n3n2)cc1,inconclusive: 76.5%
13,Nc1nnc(-c2cccc(Cl)c2Cl)c(N)n1,inconclusive: 68.4%
14,O=C(COc1cnc2ccccc2n1)NCCC1=CCCCC1,inconclusive: 60.7%
15,c1csc(-c2ccnc3ncnn23)c1,inconclusive: 60.6%
16,COc1ccc(C2=CC(c3c(C)nn(-c4ccccc4)c3Cl)n3nnnc3N2)cc1OC (stereo not given),inactive: 24.3%
17,COc1ccc(-c2cc(C(F)(F)F)c(C#N)c(SCC(=O)Nc3nc(C)co3)n2)cc1,inconclusive: 63.6%
18,CCOC(=O)c1cnc(-n2nc(C)cc2C)nc1Nc1ccc(C)cc1,inconclusive: 72.9%
19,CC(=O)Nc1ccccc1C(=O)C(=O)Nc1cccc(C(=O)NC2CC2)c1,inconclusive: 58.7%
20,O=C(CN1C(=O)c2ccccc2C1=O)OC(C(=O)c1ccc(Cl)cc1)c1ccccc1 (stereo not given),inconclusive: 54.4%
21,Cc1ccccc1C(=O)N1CCN(c2ccc(NC(=O)c3ccccc3[N+](=O)[O-])cc2)CC1,inconclusive: 84.5%
22,CCC(C)/C(C)=N/NC(=O)CSc1nc2ccccc2[nH]1 (stereo not given),inactive: -5.4%
23,COc1cc2c(cc1/C=C/C(=O)O)OC(C)C2 (stereo not given),inconclusive: 51.5%
24,CC(C)c1ccc(/C=C2\SC(N3CCOCC3)=NC2=O)cc1,inactive: -2.3%
25,Cc1nn(C)c(Oc2cccc(C(F)(F)F)c2)c1C=O,inconclusive: 74.2%

# As entered above.
# For inhibition, Nc1nc(-c2ccc([N+](=O)[O-])cc2)cs1 is entered as inactive: 35.7%
# For inhibition, Cc1ccccc1C(=O)N1CCN(c2ccc(NC(=O)c3ccccc3[N+](=O)[O-])cc2)CC1 is entered as inconclusive: 84.5%
